Measured values as given in PMC3171648.

Chains of the proteins cited; added tags and fusions are not shown.
UniProt P25655: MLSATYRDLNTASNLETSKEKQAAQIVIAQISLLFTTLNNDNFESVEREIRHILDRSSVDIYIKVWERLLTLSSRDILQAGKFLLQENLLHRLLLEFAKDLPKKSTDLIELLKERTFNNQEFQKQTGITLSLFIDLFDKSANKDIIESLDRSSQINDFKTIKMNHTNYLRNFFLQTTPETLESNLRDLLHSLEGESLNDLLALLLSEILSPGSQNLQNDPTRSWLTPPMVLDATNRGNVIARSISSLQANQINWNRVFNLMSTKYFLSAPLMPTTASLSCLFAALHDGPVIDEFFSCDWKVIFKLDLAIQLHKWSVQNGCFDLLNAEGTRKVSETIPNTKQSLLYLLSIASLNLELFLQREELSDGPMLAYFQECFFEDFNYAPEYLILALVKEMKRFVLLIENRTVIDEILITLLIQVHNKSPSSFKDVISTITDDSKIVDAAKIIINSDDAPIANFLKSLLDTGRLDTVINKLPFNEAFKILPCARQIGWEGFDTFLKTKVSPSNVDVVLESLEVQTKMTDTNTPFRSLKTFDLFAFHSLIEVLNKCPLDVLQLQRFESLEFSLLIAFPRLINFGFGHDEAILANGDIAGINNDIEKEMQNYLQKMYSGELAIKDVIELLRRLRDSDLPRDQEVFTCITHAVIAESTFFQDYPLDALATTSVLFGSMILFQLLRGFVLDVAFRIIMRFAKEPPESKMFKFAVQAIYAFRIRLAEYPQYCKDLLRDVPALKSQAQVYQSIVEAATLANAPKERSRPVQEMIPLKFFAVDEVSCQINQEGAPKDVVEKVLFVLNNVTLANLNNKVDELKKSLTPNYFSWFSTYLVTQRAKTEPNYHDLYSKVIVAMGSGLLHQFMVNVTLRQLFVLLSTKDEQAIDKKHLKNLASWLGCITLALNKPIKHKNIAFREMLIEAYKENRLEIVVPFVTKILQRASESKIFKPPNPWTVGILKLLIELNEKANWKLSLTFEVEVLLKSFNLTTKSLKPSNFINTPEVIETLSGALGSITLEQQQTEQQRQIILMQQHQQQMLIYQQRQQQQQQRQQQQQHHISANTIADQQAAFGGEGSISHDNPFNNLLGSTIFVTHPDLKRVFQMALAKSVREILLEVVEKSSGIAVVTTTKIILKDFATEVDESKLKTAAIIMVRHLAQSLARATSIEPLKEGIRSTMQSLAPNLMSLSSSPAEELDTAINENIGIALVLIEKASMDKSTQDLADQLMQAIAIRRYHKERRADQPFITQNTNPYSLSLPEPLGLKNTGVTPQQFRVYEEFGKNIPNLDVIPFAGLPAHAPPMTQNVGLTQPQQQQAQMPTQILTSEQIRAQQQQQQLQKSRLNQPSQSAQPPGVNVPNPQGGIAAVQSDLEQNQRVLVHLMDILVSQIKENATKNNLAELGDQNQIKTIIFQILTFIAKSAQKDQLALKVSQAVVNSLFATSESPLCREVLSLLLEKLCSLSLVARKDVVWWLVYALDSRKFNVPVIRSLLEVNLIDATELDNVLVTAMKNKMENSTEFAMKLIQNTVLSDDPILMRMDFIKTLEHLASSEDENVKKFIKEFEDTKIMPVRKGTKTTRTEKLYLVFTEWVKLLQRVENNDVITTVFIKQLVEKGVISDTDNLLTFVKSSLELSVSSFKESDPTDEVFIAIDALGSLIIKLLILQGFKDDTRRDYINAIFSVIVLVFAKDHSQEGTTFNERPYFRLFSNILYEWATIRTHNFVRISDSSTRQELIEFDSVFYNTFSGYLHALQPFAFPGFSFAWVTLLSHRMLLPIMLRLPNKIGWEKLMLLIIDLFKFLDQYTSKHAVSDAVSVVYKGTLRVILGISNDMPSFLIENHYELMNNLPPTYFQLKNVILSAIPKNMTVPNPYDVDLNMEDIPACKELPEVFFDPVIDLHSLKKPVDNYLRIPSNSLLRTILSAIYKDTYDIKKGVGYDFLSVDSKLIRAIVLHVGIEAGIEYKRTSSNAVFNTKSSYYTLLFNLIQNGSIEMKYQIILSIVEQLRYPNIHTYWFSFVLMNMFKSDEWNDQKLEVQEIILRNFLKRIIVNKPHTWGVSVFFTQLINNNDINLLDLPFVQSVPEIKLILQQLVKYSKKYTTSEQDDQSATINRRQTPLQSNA

T1: CAF1 with a TAP-tag fused to the N-terminus (yeast) (UniProt P39008)
T1 sequence: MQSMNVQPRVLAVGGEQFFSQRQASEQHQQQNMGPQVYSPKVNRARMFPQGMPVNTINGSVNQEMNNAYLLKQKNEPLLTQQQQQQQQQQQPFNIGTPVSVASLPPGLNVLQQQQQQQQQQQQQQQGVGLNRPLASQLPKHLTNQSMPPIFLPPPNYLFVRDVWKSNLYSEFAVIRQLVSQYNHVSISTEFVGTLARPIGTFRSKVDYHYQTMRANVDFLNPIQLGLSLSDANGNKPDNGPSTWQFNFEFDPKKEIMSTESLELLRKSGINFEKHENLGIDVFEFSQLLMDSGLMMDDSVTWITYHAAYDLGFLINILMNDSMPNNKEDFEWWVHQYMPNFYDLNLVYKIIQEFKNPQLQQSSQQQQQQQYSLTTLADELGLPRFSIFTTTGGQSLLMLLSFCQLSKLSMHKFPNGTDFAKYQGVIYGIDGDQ


Assays:
[1] = target: NOT1 with a TAP-tag fused to the N-terminus (yeast) (UniProt P25655); experiment: affinity purification with mass spectrometry; yeast lysate, N-terminally TAP-tagged NOT1 as bait: IgG sepharose, TEV cleavage, then glycerol gradient instead of the calmodulin step; Coomassie SDS-gel, components identified by mass spectrometry
[2] = target: T1, CAF1 with a TAP-tag fused to the N-terminus (yeast); experiment: affinity purification with mass spectrometry; tandem affinity purification from yeast lysate with N-terminally TAP-tagged CAF1 as bait: IgG sepharose, TEV cleavage, then calmodulin purification; Coomassie SDS-gel, components identified by mass spectrometry; 4 °C
[3] = target: T1, CAF1 with a TAP-tag fused to the N-terminus (yeast); experiment: affinity purification with mass spectrometry; yeast lysate, N-terminally TAP-tagged CAF1 as bait: IgG sepharose and TEV cleavage only (before the calmodulin step); Coomassie SDS-gel
[4] = target: T1, CAF1 with a TAP-tag fused to the N-terminus (yeast); experiment: condition: only after the calmodulin purification step; affinity purification with mass spectrometry; tandem affinity purification from yeast lysate with N-terminally TAP-tagged CAF1 as bait: IgG sepharose, TEV cleavage, then calmodulin purification; Coomassie SDS-gel, components identified by mass spectrometry; 4 °C

| Binder | binding [1] | binding [2] | binding [3] | binding [4] |
| --- | --- | --- | --- | --- |
| CCR4 (protein, UniProt P31384 1-837) MNDPSLLGYPNVGPQQQQQQQQQQHAGLLGKGTPNALQQQLHMNQLTGIPPPGLMNNSDVHTSSNNNSRQLLDQLANGNANMLNMNMDNNNNNNNNNNNNNNNGGGSGVMMNASTAAVNSIGMVPTVGTPVNINVNASNPLLHPHLDDPSLLNNPIWKLQLHLAAVSAQSLGQPNIYARQNAMKKYLATQQAQQAQQQAQQQAQQQVPGPFGPGPQAAPPALQPTDFQQSHIAEASKSLVDCTKQALMEMADTLTDSKTAKKQQPTGDSTPSGTATNSAVSTPLTPKIELFANGKDEANQALLQHKKLSQYSIDEDDDIENRMVMPKDSKYDDQLWHALDLSNLQIFNISANIFKYDFLTRLYLNGNSLTELPAEIKNLSNLRVLDLSHNRLTSLPAELGSCFQLKYFYFFDNMVTTLPWEFGNLCNLQFLGVEGNPLEKQFLKILTEKSVTGLIFYLRDNRPEIPLPHERRFIEINTDGEPQREYDSLQQSTEHLATDLAKRTFTVLSYNTLCQHYATPKMYRYTPSWALSWDYRRNKLKEQILSYDSDLLCLQEVESKTFEEYWVPLLDKHGYTGIFHAKARAKTMHSKDSKKVDGCCIFFKRDQFKLITKDAMDFSGAWMKHKKFQRTEDYLNRAMNKDNVALFLKLQHIPSGDTIWAVTTHLHWDPKFNDVKTFQVGVLLDHLETLLKEETSHNFRQDIKKFPVLICGDFNSYINSAVYELINTGRVQIHQEGNGRDFGYMSEKNFSHNLALKSSYNCIGELPFTNFTPSFTDVIDYIWFSTHALRVRGLLGEVDPEYVSKFIGFPNDKFPSDHIPLLARFEFMKTNTGSKKV | binds | binds | – | – |
| NOT5 (protein, UniProt Q12514 1-560) MSQRKLQQDIDKLLKKVKEGIEDFDDIYEKFQSTDPSNSSHREKLESDLKREIKKLQKHRDQIKTWLSKEDVKDKQSVLMTNRRLIENGMERFKSVEKLMKTKQFSKEALTNPDIIKDPKELKKRDQVLFIHDCLDELQKQLEQYEAQENEEQTERHEFHIANLENILKKLQNNEMDPEPVEEFQDDIKYYVENNDDPDFIEYDTIYEDMGCEIQPSSSNNEAPKEGNNQTSLSSIRSSKKQERSPKKKAPQRDVSISDRATTPIAPGVESASQSISSTPTPVSTDTPLHTVKDDSIKFDNSTLGTPTTHVSMKKKESENDSEQQLNFPPDRTDEIRKTIQHDVETNAAFQNPLFNDELKYWLDSKRYLMQPLQEMSPKMVSQLESSLLNCPDSLDADSPCLYTKPLSLPHPTSIFFPNEPIRFVYPYDVPLNLTNNENDTDNKFGKDSKAKSKKDDDIYSRTSLARIFMKFDLDTLFFIFYHYQGSYEQFLAARELFKNRNWLFNKVDRCWYYKEIEKLPPGMGKSEEESWRYFDYKKSWLARRCGNDFVYNEEDFEKL | binds | – | binds | no binding |
| CAF130 (protein, UniProt P53280 1-1122) MTKKKAATNYAERQNLASEDSSGDSVHFKDFIPLQELLKDKNYVPSVENLEKILYNETMFNDQKICSNLLLEALIITLFTTISGKSALRLIQTSSLKERKSWAQSFENNSSSYASIVLSWKDNDILLLKFLRFLLANKTAPLQINRYNLPEYKLPLSFLIVSKITIPSILLNETYNLLKDYLYSITGRIESLISCSSTFDKPALVVRKILKDYNRMIECRNFYFWYSFNAENRVNLTFSDNISLLMENDEGNAGSGLDDSRFDHQKQPREAIMGRTINDQEQIYSFELNQDGTLEIPNVMEHSLLRHELLFKILNLTTVLTPLLELQFSTLCGLVDPLMQPTPNDKHIISIDFLFQLFLGLMSQSIKTSQEHNDHYDWKFYMCFNMQKIIDATMLRLNCFDFDILNSVNNTDNAVHWKTQLHRWLPHGLNTQDLELLYMIDILAVYTIYKLYEKIPIQLNPFLFSLISLWKNLSCVILLALEIDRIEEENGTYETPLMVRATIRGAAALRSVIATVLNGLVKNNDHDFKHESLNTFMSPYGRKLCHGALYADLRSHTASLLALGASIEDVTDLFADLQSGDRFDEDIRYMFDYECEDYDESFSESDHGGLDESVVNPTEKIASGSNNVFFRRRCNCIFNDDKLVAEDGANEAFGSTNSENVEGAMHNNRNAVHNATTATSDHVVTSPNPLSVRSRSTFEFDYSGEDWRDVPRDFNMYYSPSYSFIHEPKLDVIFSLTLRGATEKLNKEESILLVRSVASCVRNEQDQMILADLESNFSASINGDVEGEGNTKMSKIDNEDLRRTTPDDIYEIWSEESAFERMLNVNHDVAWRLMDEMLMCTGYRRILIWFLTHLELKHSLIYYVFELIMGLRGKPFSGEASDQDKKDDMIYEILKKKQKNEDASGLPFSRQGPIVLSDIETKMLLQEFFMNAAIFLSSKNNEEENEDGEKISLYSLGLVRLICYMVQTLIANDKFFFTKSECTFELQTLLMTWIGILPEAKDLFFKIKTRLAMEEEDSADTMQHEGRKNSDIEKKLNAKPASELNLKLLNLFPSKPANKDDSSPINTLRSFIADYSFDTQVNPPGRRVVFYDGKILPLPKADKPIPLHEYITLAELDVGDSE | binds | – | binds | no binding |

Results, then the binder that gave them:

| binding [1] | binding [2] | binding [3] | binding [4] | Binder |
| --- | --- | --- | --- | --- |
| binds | – | – | – | CAF1 (protein, UniProt P39008 1-433) MQSMNVQPRVLAVGGEQFFSQRQASEQHQQQNMGPQVYSPKVNRARMFPQGMPVNTINGSVNQEMNNAYLLKQKNEPLLTQQQQQQQQQQQPFNIGTPVSVASLPPGLNVLQQQQQQQQQQQQQQQGVGLNRPLASQLPKHLTNQSMPPIFLPPPNYLFVRDVWKSNLYSEFAVIRQLVSQYNHVSISTEFVGTLARPIGTFRSKVDYHYQTMRANVDFLNPIQLGLSLSDANGNKPDNGPSTWQFNFEFDPKKEIMSTESLELLRKSGINFEKHENLGIDVFEFSQLLMDSGLMMDDSVTWITYHAAYDLGFLINILMNDSMPNNKEDFEWWVHQYMPNFYDLNLVYKIIQEFKNPQLQQSSQQQQQQQYSLTTLADELGLPRFSIFTTTGGQSLLMLLSFCQLSKLSMHKFPNGTDFAKYQGVIYGIDGDQ |
| binds | – | binds | no binding | NOT2 (protein, UniProt P06100 1-191) MEKFGLKALVPLLKLEDKELSSTYDHSMTLGADLSSMLYSLGIPRDSQDHRVLDTFQSPWAETSRSEVEPRFFTPESFTNIPGVLQSTVTPPCFNSIQNDQQRVALFQDETLFFLFYKHPGTVIQELTYLELRKRNWRYHKTLKAWLTKDPMMEPIVSADGLSERGSYVFFDPQRWEKCQRDFLLFYNAIM |

No constants are given. Whether binding was seen depends on the method and setting. In cells and extracts the contact can be indirect. These calls come from enrichment with a bait or labelling near it, and not all partners need be listed. For part of these data: No binding means not detected with the bait. For part of these data: Sequences can lack the tags named with a protein.
